From paper PMC3930595 come the findings set out here.

No constants are given. Whether binding was seen depends on the method and setting. Binding seen in cells or lysates may run through a third protein. A yes stands for co-enrichment or nearness to the bait. Other partners may have been found.

The assay deals with Slc1 (Ct043), type III secretion chaperone (Chlamydia trachomatis LGV serotype L2 strain 434/Bu (endogenous in EBs)). The experiment in a line: affinity purification with mass spectrometry; anti-Slc1 or anti-Mcsc antibodies (pre-immune serum as control) cross-linked to protein A/G resin; EB lysate in Pierce IP lysis buffer (25 mM Tris, 150 mM NaCl, 1 mM EDTA, 1% NP-40, 5% glycerol, pH 7.4), 4 h at 4°C; elution at pH 2.8; LC-MS/MS; three biological replicates.

B1: late transcription unit B protein (ltuB, Ct080) (protein, UniProt Q46404 1-97)
chain: MKKRSSRKLAQVIGRKTGNYFPASIEGETKKEHKHHYSTASKEKESLRKRAKEFDVLVHSLLDKHVPQNSDQVLIFTYQNGFVETDFHNFGRYSVKL
B1: the binding entry is listed as “binds”.
